Source: patent publication US5925731A, “Endothelin antagonist peptides” (Takeda Chemical Industries, Ltd., priority 1995, dated 1999)
At least one peptide structure holds a part that was inferred or is arguable (an end, a ring closure or a residue). *1 amine or outer side, *2 acyl side, *3 side chain or, on linkers, in order; H or OH if unused. Where a SMILES comes first, the peptide text is derived from it. [ ]: non-standard residue; d: D form. The star is where a group is joined. Piperazinyl(4-(2-MeOPh)) = COc1ccccc1N1CCN(*)CC1; dNle = CCCC[C@@H](N)C(=O)O; CO = O=C([*:1])[*:2]; X1 = C1CCCN(*)CC1; Moc = COC(=O)*

Experiments:
[1] = tested on: coronary arteries isolated from porcine hearts; assay: Inhibition of endothelin-1 induced constriction of ring samples of porcine coronary arteries (Test Example 2 A); type: cell-based; details: compound 1 μM, pre-treated 30 minutes; endothelin-1 3 nM; porcine coronary artery rings; n = 4
[2] = tested on: coronary vein isolated from porcine hearts; assay: Inhibition of Sarafotoxin S6C induced constriction of porcine coronary vein (Test Example 2 B); type: cell-based; details: compound 0.1 μM, Sarafotoxin S6C 1 nM, passive tension 0.5 g, n = 4

CCCC[C@@H](NC(=O)[C@@H](Cc1cn(C(=O)OC)c2ccccc12)NC(=O)[C@H](CC(C)C)NC(=O)N1CCCCCC1)C(=O)N[C@H](CC(=O)N1CCN(c2ccccc2OC)CC1)C(=O)O [W. Ex. 5, Hexamethyleniminocarbonyl-Leu-D-Trp(COOMe)-D-Nle-D-Asp (2MeOPhp)] ({X1-CO}-L[dW](Moc)[dNle][dD](Piperazinyl(4-(2-MeOPh)))-OH)
% inhibition of constriction, A) [1]: 72.7 + 10.5%
% inhibition of constriction, B) [2]: 91.6 ± 2.9%
